Single values are uncertain, as repeats are few or missing.
Compound: [O-][N+](C(C1=C(C(O)=C2)NC(C(C=C3)=CC=C3Cl)C4C1C=CC4)=C2Cl)=O
Assay: melting temperature shift (compound 7 minus DMSO); higher = compound stabilises the protein
Conditions: 10 µM
Method: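 Thermal proteome profiling (TMT mass spectrometry) in intact DAOY medulloblastoma cells or DAOY lysates treated with 10 µM compound 7 or DMSO, heated at 10 temperatures from 40.5 to 73.8 °C for 3 min. Melting curves were fitted with the Bioconductor TPP package, and the melting point difference between compound and vehicle is reported per protein (single curve per condition).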

Amino acid sequences for entries named in this document (tags omitted). A change or cut given only in a name is not applied to a line headed by its entry.
UniProt O95905: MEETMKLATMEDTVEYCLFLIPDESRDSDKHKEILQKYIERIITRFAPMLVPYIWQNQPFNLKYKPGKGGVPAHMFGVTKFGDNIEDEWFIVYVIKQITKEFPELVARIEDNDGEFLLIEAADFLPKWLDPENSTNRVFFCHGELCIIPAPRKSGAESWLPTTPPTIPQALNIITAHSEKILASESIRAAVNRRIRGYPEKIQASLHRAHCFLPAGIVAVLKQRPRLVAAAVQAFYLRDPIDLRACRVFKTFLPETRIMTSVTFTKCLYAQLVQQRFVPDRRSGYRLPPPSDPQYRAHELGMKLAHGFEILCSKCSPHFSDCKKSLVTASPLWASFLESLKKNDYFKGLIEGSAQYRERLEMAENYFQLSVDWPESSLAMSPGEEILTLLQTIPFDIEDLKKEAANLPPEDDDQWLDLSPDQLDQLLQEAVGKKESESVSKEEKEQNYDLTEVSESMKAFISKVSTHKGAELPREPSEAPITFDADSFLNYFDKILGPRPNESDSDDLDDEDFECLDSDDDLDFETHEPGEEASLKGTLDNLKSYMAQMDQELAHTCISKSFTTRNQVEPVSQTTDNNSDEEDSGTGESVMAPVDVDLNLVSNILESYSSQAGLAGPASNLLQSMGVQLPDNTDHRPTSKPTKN
UniProt P43360, whole entry: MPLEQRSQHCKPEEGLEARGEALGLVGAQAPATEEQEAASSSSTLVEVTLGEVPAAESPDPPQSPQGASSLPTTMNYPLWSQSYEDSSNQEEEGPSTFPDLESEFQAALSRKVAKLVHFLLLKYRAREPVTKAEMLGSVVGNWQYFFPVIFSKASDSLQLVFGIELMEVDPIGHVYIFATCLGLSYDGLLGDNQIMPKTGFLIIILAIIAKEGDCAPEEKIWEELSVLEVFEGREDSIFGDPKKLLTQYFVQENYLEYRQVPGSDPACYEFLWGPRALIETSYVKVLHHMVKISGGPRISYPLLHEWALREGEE
UniProt P29353: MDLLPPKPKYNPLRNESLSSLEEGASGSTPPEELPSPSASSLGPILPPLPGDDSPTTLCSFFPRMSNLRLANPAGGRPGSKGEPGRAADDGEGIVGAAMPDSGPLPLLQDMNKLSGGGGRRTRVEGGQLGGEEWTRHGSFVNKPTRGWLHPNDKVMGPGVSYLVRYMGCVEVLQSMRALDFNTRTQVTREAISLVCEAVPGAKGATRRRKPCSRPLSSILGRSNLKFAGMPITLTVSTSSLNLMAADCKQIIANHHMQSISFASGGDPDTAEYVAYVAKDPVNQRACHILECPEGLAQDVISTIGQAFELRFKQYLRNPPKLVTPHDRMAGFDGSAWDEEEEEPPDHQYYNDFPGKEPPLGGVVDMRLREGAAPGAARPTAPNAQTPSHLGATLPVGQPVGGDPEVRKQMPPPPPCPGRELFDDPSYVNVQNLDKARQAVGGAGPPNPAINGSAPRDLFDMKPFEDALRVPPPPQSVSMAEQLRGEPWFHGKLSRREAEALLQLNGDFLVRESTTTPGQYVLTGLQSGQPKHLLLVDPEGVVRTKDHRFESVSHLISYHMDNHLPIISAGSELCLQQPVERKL
UniProt Q9BVK6: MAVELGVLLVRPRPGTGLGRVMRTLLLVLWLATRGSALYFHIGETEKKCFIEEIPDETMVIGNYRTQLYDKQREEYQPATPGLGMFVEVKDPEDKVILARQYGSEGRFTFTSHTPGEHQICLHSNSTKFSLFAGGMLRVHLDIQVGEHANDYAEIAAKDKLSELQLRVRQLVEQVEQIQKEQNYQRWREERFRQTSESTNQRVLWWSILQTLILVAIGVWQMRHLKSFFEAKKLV
UniProt Q9H4P4: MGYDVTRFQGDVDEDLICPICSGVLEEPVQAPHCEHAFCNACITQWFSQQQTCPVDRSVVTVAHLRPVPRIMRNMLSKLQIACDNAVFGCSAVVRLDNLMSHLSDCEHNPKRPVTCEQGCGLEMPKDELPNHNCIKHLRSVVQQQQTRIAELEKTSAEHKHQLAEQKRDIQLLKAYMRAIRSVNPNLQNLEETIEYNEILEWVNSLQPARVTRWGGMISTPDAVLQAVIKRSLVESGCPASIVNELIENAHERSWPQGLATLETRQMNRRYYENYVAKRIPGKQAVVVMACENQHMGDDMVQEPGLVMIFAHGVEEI
UniProt Q8IZ81: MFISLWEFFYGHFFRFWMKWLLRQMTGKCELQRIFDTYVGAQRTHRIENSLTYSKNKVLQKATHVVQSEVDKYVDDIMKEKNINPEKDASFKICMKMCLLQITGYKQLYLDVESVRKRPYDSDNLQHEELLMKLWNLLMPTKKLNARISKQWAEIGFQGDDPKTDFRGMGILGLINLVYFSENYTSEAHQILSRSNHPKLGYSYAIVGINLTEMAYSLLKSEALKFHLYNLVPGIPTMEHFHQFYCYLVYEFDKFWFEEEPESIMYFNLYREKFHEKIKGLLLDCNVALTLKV
UniProt P78395, whole entry: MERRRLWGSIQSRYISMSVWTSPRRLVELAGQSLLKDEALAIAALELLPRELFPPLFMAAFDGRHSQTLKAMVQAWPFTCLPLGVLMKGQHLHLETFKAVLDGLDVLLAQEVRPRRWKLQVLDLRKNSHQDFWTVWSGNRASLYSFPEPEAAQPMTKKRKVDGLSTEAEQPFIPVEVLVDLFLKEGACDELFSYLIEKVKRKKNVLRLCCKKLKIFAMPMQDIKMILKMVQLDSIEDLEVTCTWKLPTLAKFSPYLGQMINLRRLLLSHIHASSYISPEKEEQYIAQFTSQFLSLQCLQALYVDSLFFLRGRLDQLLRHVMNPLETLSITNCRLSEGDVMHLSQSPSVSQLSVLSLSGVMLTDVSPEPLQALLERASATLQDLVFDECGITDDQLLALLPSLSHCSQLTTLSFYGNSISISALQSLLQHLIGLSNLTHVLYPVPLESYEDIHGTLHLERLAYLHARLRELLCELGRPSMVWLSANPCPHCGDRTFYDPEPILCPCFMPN
UniProt Q96QG7: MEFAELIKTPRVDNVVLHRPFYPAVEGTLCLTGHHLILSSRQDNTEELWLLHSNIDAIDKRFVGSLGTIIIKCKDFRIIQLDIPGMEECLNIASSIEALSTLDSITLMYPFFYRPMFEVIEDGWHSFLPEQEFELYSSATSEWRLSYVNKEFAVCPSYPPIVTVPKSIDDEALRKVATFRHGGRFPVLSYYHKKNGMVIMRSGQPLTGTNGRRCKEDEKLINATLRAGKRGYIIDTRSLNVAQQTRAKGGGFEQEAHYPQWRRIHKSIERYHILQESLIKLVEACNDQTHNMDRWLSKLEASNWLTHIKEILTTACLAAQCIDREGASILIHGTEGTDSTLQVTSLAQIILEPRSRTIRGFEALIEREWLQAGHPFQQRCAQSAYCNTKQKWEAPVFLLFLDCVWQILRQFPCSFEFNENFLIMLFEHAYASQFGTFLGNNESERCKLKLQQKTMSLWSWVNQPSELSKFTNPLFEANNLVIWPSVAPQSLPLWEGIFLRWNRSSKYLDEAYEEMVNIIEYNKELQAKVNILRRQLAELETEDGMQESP
UniProt Q9H7C4: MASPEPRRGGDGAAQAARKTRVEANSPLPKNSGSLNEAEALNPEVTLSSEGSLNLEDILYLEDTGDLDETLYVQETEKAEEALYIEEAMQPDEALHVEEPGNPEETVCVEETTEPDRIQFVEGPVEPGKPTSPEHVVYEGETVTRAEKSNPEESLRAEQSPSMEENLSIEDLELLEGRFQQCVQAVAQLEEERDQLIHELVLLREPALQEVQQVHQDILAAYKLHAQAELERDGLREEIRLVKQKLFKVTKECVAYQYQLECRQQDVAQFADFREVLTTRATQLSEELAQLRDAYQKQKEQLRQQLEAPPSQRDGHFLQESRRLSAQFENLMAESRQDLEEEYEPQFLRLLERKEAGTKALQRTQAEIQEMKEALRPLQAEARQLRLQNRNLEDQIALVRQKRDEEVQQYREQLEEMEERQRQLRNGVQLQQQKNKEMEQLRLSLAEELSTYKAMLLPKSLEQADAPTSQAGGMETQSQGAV
UniProt Q9H6Y2: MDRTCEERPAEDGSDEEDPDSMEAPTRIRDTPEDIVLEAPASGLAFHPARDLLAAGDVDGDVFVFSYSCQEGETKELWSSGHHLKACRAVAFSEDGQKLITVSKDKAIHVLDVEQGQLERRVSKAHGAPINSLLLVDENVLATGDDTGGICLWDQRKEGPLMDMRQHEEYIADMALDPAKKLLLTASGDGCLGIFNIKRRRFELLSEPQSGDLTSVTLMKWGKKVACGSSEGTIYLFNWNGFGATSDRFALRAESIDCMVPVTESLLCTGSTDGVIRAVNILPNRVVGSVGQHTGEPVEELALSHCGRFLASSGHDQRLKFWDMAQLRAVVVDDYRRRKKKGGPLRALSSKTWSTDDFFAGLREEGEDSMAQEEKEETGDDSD
UniProt Q7Z7H5: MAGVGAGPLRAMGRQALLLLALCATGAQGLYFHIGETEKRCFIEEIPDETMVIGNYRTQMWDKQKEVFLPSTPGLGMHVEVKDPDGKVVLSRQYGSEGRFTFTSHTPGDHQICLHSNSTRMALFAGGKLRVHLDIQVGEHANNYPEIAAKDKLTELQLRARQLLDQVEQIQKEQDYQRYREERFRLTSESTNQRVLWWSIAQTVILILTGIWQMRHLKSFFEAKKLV
UniProt Q07820, whole entry: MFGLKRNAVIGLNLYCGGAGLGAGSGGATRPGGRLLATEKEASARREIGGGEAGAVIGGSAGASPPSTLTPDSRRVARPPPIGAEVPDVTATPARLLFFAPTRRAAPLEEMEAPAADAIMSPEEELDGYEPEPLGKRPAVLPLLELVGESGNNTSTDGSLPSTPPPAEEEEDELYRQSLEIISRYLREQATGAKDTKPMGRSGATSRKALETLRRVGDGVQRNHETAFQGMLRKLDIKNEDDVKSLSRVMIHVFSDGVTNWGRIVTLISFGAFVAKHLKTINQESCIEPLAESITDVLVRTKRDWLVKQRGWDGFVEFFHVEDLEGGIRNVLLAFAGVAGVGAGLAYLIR
UniProt Q96RT1: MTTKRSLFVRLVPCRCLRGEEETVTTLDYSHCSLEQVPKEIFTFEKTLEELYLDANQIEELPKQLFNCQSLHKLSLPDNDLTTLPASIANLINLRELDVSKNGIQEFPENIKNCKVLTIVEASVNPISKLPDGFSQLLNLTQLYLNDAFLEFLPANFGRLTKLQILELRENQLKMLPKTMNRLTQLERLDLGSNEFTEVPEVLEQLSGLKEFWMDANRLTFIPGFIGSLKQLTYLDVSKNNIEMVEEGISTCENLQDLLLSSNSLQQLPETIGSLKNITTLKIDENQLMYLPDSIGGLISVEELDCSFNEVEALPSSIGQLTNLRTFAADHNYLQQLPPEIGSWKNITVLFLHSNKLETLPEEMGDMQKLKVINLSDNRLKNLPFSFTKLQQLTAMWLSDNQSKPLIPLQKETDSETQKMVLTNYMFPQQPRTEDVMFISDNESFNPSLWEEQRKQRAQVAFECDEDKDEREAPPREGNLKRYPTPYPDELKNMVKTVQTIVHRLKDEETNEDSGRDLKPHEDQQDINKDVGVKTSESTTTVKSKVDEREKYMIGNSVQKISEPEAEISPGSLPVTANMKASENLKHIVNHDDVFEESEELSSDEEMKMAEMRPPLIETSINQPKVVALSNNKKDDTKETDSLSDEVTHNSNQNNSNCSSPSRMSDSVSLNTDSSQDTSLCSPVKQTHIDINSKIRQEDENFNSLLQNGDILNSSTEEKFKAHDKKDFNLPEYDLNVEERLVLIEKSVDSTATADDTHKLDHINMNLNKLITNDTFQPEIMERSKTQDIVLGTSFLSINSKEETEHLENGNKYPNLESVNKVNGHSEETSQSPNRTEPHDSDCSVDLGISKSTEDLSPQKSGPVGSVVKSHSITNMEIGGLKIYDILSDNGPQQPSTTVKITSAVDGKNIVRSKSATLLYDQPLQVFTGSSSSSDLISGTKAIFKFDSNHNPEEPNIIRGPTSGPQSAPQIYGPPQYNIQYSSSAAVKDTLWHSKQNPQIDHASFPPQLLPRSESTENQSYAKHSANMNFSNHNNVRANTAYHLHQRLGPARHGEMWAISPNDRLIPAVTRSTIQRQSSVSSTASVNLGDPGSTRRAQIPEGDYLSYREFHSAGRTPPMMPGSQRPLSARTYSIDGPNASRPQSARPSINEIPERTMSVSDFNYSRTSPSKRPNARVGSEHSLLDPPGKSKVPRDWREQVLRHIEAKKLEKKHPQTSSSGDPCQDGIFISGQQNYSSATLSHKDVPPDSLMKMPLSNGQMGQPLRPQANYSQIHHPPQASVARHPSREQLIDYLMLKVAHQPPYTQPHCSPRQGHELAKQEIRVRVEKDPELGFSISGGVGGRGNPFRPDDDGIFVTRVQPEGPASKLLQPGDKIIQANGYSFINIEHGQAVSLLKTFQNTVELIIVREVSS
UniProt Q96AX2: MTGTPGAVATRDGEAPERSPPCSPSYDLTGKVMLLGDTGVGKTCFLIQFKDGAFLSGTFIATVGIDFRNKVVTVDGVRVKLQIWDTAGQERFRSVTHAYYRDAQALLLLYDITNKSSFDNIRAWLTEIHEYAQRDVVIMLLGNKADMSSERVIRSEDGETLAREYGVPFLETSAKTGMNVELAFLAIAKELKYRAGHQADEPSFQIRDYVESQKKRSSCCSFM

[1] = system: DAOY cell lysate, treatment time: 20 min, 4 °C
[2] = system: intact DAOY cells, treatment time: 90 min, 37 °C

## UniProt Q99766
[1]
  melting temperature shift: 1.32 °C
[2]
  melting temperature shift: -0.0169 °C

## TOMM22 (UniProt Q9NS69)
[1]
  melting temperature shift: 2.82 °C
[2]
  melting temperature shift: -1.39 °C

## PLA2G15 (UniProt Q8NCC3)
[1]
  melting temperature shift: 0.716 °C

## ECD (UniProt O95905)
[1]
  melting temperature shift: -0.867 °C
[2]
  melting temperature shift: 0.0654 °C

## UniProt Q56UQ5
[2]
  melting temperature shift: 1.01 °C

## UniProt P43360
[1]
  melting temperature shift: -1.89 °C
[2]
  melting temperature shift: 0.358 °C

## PPIH (UniProt O43447)
[1]
  melting temperature shift: 0.116 °C
[2]
  melting temperature shift: -0.282 °C

## SHC1 (UniProt P29353)
[1]
  melting temperature shift: -0.0622 °C
[2]
  melting temperature shift: 0.731 °C

## PRIM2 (UniProt P49643)
[1]
  melting temperature shift: -0.608 °C
[2]
  melting temperature shift: -0.736 °C

## SLC7A6OS (UniProt Q96CW6)
[1]
  melting temperature shift: -5.34 °C

## CDIPT (UniProt O14735)
[1]
  melting temperature shift: 3.14 °C
[2]
  melting temperature shift: 0.0308 °C

## PARN (UniProt O95453)
[1]
  melting temperature shift: -0.291 °C
[2]
  melting temperature shift: -1.31 °C

## TMED9 (UniProt Q9BVK6)
[1]
  melting temperature shift: 1.98 °C
[2]
  melting temperature shift: -0.627 °C

## MRPL41 (UniProt Q8IXM3)
[1]
  melting temperature shift: -0.774 °C
[2]
  melting temperature shift: -0.378 °C

## UniProt Q9H4P4
[1]
  melting temperature shift: 0.775 °C

## CNP (UniProt P09543)
[1]
  melting temperature shift: -0.43 °C
[2]
  melting temperature shift: -1.33 °C

## UniProt P04035
[1]
  melting temperature shift: 2.15 °C

## ELMOD2 (UniProt Q8IZ81)
[1]
  melting temperature shift: 1.1 °C

## MRPL30 (UniProt Q8TCC3)
[1]
  melting temperature shift: 0.977 °C
[2]
  melting temperature shift: 0.258 °C

## TXNDC15 (UniProt Q96J42)
[1]
  melting temperature shift: -1.32 °C

## UniProt P78395
[1]
  melting temperature shift: 0.992 °C

## UVRAG (UniProt Q9P2Y5)
[1]
  melting temperature shift: -1.34 °C
[2]
  melting temperature shift: -0.321 °C

## MTMR9 (UniProt Q96QG7)
[1]
  melting temperature shift: 1.27 °C
[2]
  melting temperature shift: -0.0279 °C

## UniProt Q9H7C4
[1]
  melting temperature shift: -2.41 °C
[2]
  melting temperature shift: -0.46 °C

## UniProt Q5DJT8
[2]
  melting temperature shift: 1.32 °C

## ZNF217 (UniProt O75362)
[1]
  melting temperature shift: -0.452 °C
[2]
  melting temperature shift: -0.418 °C

## SH3GLB1 (UniProt Q9Y371)
[1]
  melting temperature shift: -1.12 °C
[2]
  melting temperature shift: 0.000563 °C

## SCFD1 (UniProt Q8WVM8)
[1]
  melting temperature shift: 1.23 °C
[2]
  melting temperature shift: -0.571 °C

## UniProt Q9NYL4
[1]
  melting temperature shift: 1.09 °C
[2]
  melting temperature shift: -1.15 °C

## UniProt P78560
[1]
  melting temperature shift: 1.16 °C

## FAM177A1 (UniProt Q8N128)
[1]
  melting temperature shift: -2.29 °C

## WDR55 (UniProt Q9H6Y2)
[1]
  melting temperature shift: -1.68 °C
[2]
  melting temperature shift: -1.74 °C

## MRPL4 (UniProt Q9BYD3)
[1]
  melting temperature shift: 0.176 °C
[2]
  melting temperature shift: 0.178 °C

## TMED4 (UniProt Q7Z7H5)
[1]
  melting temperature shift: 1.39 °C
[2]
  melting temperature shift: -1.09 °C

## SSRP1 (UniProt Q08945)
[1]
  melting temperature shift: 0.635 °C
[2]
  melting temperature shift: 0.417 °C

## MCL1 (UniProt Q07820)
[1]
  melting temperature shift: -0.521 °C
[2]
  melting temperature shift: -2.2 °C

## DOCK1 (UniProt Q14185)
[1]
  melting temperature shift: -2.09 °C

## PSMD9 (UniProt O00233)
[1]
  melting temperature shift: 1.85 °C

## RPTOR (UniProt Q8N122)
[1]
  melting temperature shift: -1.2 °C

## KIN (UniProt O60870)
[1]
  melting temperature shift: -0.144 °C
[2]
  melting temperature shift: 0.889 °C

## SLC16A1 (UniProt P53985)
[1]
  melting temperature shift: 5.99 °C

## UniProt O75127
[1]
  melting temperature shift: 2.46 °C

## SUPT5H (UniProt O00267)
[1]
  melting temperature shift: -0.027 °C
[2]
  melting temperature shift: 0.0854 °C

## UniProt P13637
[2]
  melting temperature shift: -0.357 °C

## NDUFB6 (UniProt O95139)
[1]
  melting temperature shift: 2.03 °C

## BUB1 (UniProt O43683)
[1]
  melting temperature shift: -0.256 °C
[2]
  melting temperature shift: 1.66 °C

## ERBB2IP (UniProt Q96RT1)
[1]
  melting temperature shift: 1.24 °C
[2]
  melting temperature shift: -0.494 °C

## UniProt Q96AX2
[2]
  melting temperature shift: -1.53 °C

## RAD18 (UniProt Q9NS91)
[1]
  melting temperature shift: 0.00457 °C
[2]
  melting temperature shift: 0.872 °C
